Data published in US5962408A (Nycomed Imaging AS, priority 1994, dated 1999).
HELM strings list residues between dots; [ac] is acetyl, [am] amide, other brackets name non-standard units.

Experiment: general procedure: Fmoc solid-phase peptide synthesis; Fmoc-Cys(Trt)-p-alkoxybenzyl alcohol resin (0.55 mmol/g); HBTU/HOBt/iPr2NEt in NMP
Conditions: whole synthesis, 215 nm, scale of the general procedure 0.1 mmol

In the case of “PEPTIDE1{C.E.Q.Y.C}$PEPTIDE1,PEPTIDE1,1:R3-5:R3$$$V2.0”, the “final HPLC purity” value is reported as greater than 99%.
